Results as given in US20140271765A1 (priority 2013, published 2014).

What was measured:
[1] = plasma norbuprenorphine; 2 implants; individual subjects
[2] = Urinary excretion, plasma AUC and renal clearance after implants (Example 5); settings: norbuprenorphine, individual subjects

Substance: norbuprenorphine
- Cave Day 21 to removal [1]: 109.9, 104.1, 100.0, 103.8, 76.8, 239.1 pg/mL
- Plasma AUC ([2]; 2 implants, 0-24 hours): 24,287 pg/mL*h and 27,032 pg/mL*h and 24,987 pg/mL*h and 18,773 pg/mL*h and 24,379 pg/mL*h and 49,780 pg/mL*h
- Plasma AUC ([2]; 2 implants, 24-48 hours): 46,200 pg/mL*h and 24,618 pg/mL*h and 25,638 pg/mL*h and 12,846 pg/mL*h
- Plasma AUC ([2]; 4 implants, 0-24 hours): 87,440 pg/mL*h and 85,055 pg/mL*h and 74,000 pg/mL*h and 41,040 pg/mL*h and 23,182 pg/mL*h
- Plasma AUC ([2]; 4 implants, 24-48 hours): 76,920 pg/mL*h and 60,930 pg/mL*h and 70,290 pg/mL*h and 29,250 pg/mL*h and 22,989 pg/mL*h

This is a selection: effects in other tests are not listed, and their absence says nothing. Some entries of the source have several records that differ or are many. This is not the full list of results. The source may hold further records. The values listed for one entry do not match, cause unknown; dose, time, organism, isomer or construct need not be as stated for each record.
